Paper PMC4741643
These are yes or no findings as the source states them, for the method shown. For part of these data: Binding seen in cells or lysates may run through a third protein. For part of these data: Tags and fused reporters may be left off the sequences shown. Blank lines part the entries; values can stand above or below the substance they belong to.

Amino acid sequences for entries named in this document (tags omitted). A change or cut given only in a name is not applied to a line headed by its entry.
UniProt P17948: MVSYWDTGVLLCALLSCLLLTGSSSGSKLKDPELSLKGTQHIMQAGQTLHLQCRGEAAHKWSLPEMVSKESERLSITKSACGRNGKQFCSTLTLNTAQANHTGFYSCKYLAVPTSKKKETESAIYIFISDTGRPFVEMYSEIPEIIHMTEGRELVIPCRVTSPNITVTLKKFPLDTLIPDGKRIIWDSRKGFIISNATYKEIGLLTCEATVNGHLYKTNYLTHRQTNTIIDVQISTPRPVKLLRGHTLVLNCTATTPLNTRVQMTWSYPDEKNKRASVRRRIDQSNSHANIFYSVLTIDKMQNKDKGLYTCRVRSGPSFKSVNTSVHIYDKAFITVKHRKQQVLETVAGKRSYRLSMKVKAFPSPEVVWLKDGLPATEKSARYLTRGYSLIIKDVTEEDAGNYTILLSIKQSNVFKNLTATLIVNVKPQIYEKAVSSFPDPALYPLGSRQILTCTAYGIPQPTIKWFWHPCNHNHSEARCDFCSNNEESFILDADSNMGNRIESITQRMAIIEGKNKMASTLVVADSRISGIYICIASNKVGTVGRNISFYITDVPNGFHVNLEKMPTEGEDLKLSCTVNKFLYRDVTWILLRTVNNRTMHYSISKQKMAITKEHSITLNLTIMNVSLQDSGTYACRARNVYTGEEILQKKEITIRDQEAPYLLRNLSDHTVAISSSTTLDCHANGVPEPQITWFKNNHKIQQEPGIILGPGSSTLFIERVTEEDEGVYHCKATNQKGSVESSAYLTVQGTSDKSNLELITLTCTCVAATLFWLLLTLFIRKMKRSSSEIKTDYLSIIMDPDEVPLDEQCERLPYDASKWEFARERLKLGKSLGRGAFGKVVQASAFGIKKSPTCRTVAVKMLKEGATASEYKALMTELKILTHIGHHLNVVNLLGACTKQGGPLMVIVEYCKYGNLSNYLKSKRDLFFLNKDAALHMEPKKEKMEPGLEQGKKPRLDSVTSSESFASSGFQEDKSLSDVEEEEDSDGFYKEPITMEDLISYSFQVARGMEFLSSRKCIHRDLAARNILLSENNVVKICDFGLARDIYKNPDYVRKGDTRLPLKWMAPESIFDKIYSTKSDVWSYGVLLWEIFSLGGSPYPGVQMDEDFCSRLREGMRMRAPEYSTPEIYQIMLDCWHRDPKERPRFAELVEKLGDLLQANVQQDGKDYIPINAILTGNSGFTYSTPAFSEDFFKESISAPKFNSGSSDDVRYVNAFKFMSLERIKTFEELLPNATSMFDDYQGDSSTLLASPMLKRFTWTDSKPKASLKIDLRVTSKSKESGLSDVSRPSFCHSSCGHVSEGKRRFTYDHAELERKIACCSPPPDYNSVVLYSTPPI

Experiments:
[1] = target: T1, FLAG-sMEK1 (pcDNA3.1/Flag-sMEK1) (human) (UniProt Q6IN85); experiment: co-IP; HEK293T cells co-transfected with pcDNA3.1/Flag-sMEK1 and pcDNA3.1-VEGFR-1 or pcDNA3.1-VEGFR-2; lysis in 50 mM Tris/HCl pH 7.2, 150 mM NaCl, 1% Triton X-100; anti-Flag antibody and protein A-agarose; blots with anti-sMEK1, anti-VEGFR-1 or anti-VEGFR-2
T1 sequence: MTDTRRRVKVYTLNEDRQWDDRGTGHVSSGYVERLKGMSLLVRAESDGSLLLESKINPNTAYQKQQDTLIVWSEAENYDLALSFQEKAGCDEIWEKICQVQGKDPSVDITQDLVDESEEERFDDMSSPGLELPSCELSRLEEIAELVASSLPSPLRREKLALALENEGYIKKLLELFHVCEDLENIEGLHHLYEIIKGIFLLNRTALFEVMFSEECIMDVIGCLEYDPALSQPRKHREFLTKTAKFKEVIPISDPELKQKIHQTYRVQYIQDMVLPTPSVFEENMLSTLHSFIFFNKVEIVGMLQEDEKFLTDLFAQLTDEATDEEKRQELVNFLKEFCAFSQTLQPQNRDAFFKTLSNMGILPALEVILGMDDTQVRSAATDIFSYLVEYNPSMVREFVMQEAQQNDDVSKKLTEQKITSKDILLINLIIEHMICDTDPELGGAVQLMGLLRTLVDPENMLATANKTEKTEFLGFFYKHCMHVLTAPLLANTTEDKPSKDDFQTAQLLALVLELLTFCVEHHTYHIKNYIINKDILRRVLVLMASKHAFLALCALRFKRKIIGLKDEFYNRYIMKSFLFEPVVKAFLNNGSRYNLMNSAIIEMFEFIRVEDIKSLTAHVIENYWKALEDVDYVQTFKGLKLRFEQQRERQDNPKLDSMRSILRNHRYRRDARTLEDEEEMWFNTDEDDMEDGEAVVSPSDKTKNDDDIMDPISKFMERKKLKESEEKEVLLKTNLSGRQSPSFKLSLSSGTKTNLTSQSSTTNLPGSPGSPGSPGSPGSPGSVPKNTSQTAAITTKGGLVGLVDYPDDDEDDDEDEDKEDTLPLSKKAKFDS

[2] = target: T2, suppressor of MEK null (sMEK1), full-length human, pGilda fusion (human) (UniProt Q6IN85); experiment: two-hybrid; EGY48 yeast cells; pGilda-sMEK1 as bait, pJG4-5 fusions as prey; growth on medium lacking leucine, blue colonies on X-gal plates with 2% galactose, β-galactosidase activity with ONPG
T2 sequence: T1 sequence

[3] = target: T3, endogenous sMEK1 (human (endogenous in HEK293T)) (UniProt Q6IN85); experiment: co-IP; endogenous proteins in total lysates of HEK293T cells; IP with an antibody as indicated, Western blot with anti-sMEK1 or anti-VEGFR-2; rabbit IgG and VEGFR-1 as negative controls
T3 sequence: T1 sequence

binding [1]: no binding
Substance: VEGFR-1 (pcDNA3.1-VEGFR-1) (from UniProt P17948 27-1338) (receptor)

binding [2]: no binding
Substance: VEGFR-1, yeast two-hybrid construct (from UniProt P17948 1-1338) (receptor)

binding [3]: no binding
Substance: endogenous VEGFR-1 (from UniProt P17948 27-1338) (receptor)
